Measured values as given in patent publication US20210360915A1, “CRYOPRESERVING COMPOSITIONS” (UNIVERSITY OF WARWICK, priority 2018, published 2021).
Some of these results come from one statement about several compounds together.

Test system: E. coli
Experiment: LIVE/DEAD bacterial viability test (membrane integrity, confocal microscopy)
Format: cell-based, Escherichia coli
Settings: immediately post freeze/thaw; PEG/PVA 100 + 1 mg·mL^−1

For `OCC(O)CO` [25% Glycerol, glycerol], the “E. coli retaining intact membranes (green)” value was 15-18%.
